Results published in the supplement of paper PMC10849652.
The other results are listed elsewhere or left out.

Amino acid sequences for entries named in this document (tags omitted). A change or cut given only in a name is not applied to a line headed by its entry.
UniProt Q9UBP0: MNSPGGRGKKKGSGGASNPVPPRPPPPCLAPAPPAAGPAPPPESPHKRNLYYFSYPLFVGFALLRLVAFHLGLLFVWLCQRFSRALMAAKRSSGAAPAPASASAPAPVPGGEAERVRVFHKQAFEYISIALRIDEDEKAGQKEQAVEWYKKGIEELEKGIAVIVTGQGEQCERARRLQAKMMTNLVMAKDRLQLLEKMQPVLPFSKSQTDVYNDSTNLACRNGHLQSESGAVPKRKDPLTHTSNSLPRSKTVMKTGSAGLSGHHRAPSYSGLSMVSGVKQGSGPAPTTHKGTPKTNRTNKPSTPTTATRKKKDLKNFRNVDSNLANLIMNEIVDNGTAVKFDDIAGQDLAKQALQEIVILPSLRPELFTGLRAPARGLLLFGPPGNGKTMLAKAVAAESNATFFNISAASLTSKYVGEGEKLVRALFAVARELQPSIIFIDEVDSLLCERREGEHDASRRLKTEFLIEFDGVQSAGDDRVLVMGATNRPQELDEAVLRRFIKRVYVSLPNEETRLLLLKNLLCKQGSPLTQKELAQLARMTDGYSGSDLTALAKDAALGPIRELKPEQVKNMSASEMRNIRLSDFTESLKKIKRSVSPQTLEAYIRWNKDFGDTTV
UniProt Q9HBM1: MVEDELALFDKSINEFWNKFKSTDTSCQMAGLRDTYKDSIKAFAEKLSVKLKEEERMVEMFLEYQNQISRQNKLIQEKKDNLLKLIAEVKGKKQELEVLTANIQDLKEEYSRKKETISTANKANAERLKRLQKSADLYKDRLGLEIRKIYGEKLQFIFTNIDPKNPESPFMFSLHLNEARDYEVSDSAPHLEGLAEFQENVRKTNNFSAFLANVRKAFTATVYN
UniProt Q8NBT2: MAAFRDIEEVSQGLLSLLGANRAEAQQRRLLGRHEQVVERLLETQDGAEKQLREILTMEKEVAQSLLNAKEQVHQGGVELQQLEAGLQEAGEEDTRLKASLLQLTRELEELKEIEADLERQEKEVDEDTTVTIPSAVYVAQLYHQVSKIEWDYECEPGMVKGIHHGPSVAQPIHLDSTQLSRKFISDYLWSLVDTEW
UniProt Q9BVQ7: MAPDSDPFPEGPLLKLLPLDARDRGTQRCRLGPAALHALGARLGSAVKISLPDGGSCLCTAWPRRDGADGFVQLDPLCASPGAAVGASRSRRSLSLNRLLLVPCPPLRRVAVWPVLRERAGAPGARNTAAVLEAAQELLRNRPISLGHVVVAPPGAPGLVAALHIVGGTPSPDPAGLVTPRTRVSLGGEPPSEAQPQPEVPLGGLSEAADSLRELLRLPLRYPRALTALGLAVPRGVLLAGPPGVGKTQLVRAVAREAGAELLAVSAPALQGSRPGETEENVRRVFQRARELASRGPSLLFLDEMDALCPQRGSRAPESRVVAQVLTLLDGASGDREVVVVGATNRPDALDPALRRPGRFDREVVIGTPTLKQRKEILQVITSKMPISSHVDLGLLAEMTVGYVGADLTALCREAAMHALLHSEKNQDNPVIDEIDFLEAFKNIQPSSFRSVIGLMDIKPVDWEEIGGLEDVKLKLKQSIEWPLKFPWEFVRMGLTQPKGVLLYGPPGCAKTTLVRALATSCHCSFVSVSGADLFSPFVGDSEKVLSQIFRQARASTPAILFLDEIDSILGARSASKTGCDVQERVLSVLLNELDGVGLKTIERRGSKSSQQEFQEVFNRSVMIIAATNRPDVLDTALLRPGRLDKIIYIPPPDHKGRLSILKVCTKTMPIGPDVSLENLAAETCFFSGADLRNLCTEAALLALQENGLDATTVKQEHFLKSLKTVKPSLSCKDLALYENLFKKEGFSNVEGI
UniProt Q9HD15: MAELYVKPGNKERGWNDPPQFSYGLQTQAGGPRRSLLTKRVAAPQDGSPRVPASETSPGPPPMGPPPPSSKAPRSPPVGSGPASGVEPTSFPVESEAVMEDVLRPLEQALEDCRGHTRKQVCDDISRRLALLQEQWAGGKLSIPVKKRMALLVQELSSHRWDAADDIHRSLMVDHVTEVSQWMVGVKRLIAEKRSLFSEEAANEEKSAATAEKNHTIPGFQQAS
UniProt P52630: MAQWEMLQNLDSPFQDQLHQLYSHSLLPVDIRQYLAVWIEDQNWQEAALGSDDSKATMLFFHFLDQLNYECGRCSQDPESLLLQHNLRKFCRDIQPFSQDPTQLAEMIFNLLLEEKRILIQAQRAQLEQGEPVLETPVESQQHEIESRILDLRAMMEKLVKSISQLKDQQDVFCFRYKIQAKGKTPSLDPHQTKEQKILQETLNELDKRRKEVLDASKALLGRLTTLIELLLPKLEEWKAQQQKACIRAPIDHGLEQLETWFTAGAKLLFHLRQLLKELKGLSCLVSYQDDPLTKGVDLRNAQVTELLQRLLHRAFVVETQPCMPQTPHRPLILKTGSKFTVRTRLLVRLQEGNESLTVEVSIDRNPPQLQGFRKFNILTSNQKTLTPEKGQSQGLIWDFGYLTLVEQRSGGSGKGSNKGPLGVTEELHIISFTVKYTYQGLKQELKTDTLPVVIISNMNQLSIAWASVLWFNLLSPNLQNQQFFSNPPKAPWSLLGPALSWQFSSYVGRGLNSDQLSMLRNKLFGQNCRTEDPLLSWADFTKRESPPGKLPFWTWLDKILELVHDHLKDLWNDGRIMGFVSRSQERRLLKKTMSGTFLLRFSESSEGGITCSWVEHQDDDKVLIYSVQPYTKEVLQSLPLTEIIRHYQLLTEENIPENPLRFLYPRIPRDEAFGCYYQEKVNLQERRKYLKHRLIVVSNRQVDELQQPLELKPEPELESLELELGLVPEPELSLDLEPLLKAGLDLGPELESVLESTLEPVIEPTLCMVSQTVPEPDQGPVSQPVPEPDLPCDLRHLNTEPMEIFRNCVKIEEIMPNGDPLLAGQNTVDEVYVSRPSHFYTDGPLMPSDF
UniProt Q8N9Q2: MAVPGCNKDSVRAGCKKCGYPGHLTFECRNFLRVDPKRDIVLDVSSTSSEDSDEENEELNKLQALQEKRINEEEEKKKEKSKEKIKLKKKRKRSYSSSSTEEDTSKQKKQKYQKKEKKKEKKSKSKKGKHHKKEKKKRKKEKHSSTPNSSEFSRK
UniProt P30626: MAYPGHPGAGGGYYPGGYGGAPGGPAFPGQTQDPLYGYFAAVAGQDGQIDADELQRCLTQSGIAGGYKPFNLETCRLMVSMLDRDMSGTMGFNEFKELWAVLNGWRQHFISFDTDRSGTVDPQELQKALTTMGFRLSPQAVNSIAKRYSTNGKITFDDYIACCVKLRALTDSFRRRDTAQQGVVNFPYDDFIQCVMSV
UniProt Q8N1F8: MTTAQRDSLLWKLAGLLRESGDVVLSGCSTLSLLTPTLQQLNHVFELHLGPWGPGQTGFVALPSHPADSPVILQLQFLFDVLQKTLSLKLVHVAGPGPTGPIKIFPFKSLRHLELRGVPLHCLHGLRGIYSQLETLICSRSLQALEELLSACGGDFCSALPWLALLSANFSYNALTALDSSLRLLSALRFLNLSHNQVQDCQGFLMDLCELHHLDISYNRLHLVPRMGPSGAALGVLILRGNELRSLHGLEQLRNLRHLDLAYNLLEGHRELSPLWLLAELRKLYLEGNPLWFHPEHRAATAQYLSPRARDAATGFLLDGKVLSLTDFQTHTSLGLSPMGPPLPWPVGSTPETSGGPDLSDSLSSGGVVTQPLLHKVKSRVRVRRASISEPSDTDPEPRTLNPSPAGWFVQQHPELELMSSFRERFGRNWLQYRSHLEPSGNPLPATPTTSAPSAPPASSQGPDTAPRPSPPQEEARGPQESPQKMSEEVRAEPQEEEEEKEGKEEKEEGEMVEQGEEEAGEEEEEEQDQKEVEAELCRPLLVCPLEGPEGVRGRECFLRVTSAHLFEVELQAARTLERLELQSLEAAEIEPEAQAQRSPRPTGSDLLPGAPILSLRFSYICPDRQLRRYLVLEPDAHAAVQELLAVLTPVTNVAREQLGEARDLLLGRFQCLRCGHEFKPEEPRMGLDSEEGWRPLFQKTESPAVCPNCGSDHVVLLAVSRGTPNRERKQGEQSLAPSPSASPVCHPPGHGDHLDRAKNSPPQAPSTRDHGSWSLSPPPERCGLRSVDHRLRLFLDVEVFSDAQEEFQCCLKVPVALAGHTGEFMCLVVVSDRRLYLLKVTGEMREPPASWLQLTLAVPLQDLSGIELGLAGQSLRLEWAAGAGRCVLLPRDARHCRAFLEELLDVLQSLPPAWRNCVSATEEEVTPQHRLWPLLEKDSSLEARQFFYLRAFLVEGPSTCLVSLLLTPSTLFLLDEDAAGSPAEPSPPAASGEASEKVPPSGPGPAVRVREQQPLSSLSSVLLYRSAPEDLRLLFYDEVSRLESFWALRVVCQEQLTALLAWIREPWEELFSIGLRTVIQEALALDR
UniProt P37108: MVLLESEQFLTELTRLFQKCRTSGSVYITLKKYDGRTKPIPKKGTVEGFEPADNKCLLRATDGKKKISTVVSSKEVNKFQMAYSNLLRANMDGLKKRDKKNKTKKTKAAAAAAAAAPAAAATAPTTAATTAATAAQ
UniProt Q96SB4, whole entry, looked up: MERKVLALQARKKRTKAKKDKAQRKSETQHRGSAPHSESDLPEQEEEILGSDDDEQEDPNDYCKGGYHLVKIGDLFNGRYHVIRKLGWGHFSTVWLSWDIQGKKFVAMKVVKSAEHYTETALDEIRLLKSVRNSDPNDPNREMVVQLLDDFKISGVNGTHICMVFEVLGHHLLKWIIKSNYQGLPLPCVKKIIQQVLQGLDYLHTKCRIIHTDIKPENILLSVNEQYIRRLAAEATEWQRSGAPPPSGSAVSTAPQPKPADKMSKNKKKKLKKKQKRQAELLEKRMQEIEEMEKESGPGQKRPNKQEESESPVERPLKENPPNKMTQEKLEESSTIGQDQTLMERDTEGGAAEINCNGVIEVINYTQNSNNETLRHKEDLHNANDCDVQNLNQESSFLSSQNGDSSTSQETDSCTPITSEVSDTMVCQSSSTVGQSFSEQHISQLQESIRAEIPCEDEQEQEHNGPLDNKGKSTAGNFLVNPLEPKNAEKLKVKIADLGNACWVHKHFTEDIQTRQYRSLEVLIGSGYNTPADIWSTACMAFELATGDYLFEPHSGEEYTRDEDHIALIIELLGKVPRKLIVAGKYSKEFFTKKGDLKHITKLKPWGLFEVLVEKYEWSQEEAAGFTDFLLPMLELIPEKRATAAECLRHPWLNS
UniProt P16150: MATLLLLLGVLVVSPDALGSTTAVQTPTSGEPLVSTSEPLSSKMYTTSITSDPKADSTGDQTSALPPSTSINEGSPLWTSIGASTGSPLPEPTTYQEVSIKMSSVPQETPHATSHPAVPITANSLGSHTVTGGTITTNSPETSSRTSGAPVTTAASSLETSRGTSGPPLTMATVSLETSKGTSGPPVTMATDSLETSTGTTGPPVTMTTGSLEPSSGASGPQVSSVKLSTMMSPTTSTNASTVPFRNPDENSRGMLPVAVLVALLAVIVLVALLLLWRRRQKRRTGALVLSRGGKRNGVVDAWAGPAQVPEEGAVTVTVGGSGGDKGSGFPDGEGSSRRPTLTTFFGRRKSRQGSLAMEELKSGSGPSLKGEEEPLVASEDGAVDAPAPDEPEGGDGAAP
UniProt Q8IYB3: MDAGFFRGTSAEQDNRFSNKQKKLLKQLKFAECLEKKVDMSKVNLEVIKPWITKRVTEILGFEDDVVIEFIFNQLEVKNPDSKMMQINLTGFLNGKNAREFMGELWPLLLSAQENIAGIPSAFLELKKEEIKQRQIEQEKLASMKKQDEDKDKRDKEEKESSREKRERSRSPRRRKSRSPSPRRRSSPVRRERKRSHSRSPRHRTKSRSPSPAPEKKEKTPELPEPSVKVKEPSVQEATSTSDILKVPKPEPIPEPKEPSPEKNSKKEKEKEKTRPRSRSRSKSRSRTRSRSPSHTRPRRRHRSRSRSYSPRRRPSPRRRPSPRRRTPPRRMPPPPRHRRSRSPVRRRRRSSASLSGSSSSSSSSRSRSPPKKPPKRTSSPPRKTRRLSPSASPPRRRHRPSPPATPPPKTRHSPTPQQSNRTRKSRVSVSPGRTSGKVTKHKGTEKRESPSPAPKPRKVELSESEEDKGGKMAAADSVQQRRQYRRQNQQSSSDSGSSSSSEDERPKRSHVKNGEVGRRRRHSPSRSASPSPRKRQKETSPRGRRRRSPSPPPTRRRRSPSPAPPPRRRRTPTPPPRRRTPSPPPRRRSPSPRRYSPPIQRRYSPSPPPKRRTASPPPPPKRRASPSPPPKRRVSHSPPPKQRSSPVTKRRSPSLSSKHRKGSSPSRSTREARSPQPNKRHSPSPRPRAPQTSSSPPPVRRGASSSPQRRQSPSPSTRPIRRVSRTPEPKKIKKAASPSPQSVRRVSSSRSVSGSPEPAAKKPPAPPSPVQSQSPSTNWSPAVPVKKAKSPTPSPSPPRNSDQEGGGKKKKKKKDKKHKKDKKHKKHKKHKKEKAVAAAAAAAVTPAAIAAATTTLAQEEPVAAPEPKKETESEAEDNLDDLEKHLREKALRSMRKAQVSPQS

Experiments:
Experiment in all cases: log2 fold change, soluble protein after heating vs DMSO (PISA); higher = thermal stabilisation; K562 cells, 10 uM, 30 min; active = over 0.2 and 3.5 SD of the protein, either way, in both replicates (recomputed)
[1] = compound: CC1=C(C=C(C=C1)NC(=O)C2=CC(=CC=C2)C(C)(C)C#N)NC3=CC4=C(C=C3)N=CN(C4=O)C
In short: (§1)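 For each measurement, 10 μM compound was applied for 30 min to K562 cells at 2×10^6 cells/mL. Aliquots were heated for 3 min across 48°C-58°C, pooled, and extracted in PBS with 0.5% NP-40 at 4°C; the supernatant after 21,000xg for 90 min was soluble protein. This was quantified by TMTpro 16plex LC-MS/MS with channel sums equalised, and thermal stability was reported relative to control samples from duplicates, on a log2 fold-change scale.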

[2] = compound: CC1=C(C=C(C=C1)NC(=O)C2=CC(=CC=C2)N(C)C)NC(=O)C3=CC=C(C=C3)O
In short: as §1

[3] = compound: CC1=CC=C(C=C1)SC2=C3C=C(SC3=CN=C2)C(=O)N
In short: as §1

[4] = compound: CC1=NC(=CC=C1)C2=C(N=C(N2)C(C)(C)C)C3=CC4=NC=CN=C4C=C3
In short: as §1

Nexturastat A = compound: CCCCN(Cc1ccc(C(=O)NO)cc1)C(=O)Nc1ccccc1 [Nexturastat A]
In short: as §1

vemurafenib = compound: CCCS(=O)(=O)Nc1ccc(F)c(C(=O)c2c[nH]c3ncc(-c4ccc(Cl)cc4)cc23)c1F [vemurafenib]
In short: as §1

[5] = compound: CCCS(=O)(=O)Nc1ccc(F)c(C(=O)c2c[nH]c3ncc(Cl)cc23)c1F
In short: as §1

[6] = compound: CCCc1cc(C)[nH]c(=O)c1CNC(=O)c1cc(-c2ccnc(N3CCN(C)CC3)c2)cc2c1cnn2C(C)C
In short: as §1

givinostat = compound: CCN(CC)Cc1ccc2cc(COC(=O)Nc3ccc(C(=O)NO)cc3)ccc2c1 [givinostat]
In short: as §1

barasertib = compound: CCN(CCCOc1ccc2c(Nc3cc(CC(=O)Nc4cccc(F)c4)[nH]n3)ncnc2c1)CCOP(=O)(O)O [barasertib]
In short: as §1

Measured: log2 fold change

SPAST (UniProt Q9UBP0)
inactive: [1] -0.032 | [2] -0.05 | [3] 0.049 | [4] 0.029 | Nexturastat A -0.047 | vemurafenib 0.068 | [5] 0.021 | [6] 0.062 | givinostat 0.074 | barasertib 0.045

STARD7 (UniProt Q9NQZ5)
inactive: [1] 0.061 | [2] 0.015 | [3] 0.004 | [4] -0.01 | Nexturastat A -0.053 | vemurafenib 0 | [5] -0.033 | [6] 0.024 | givinostat -0.029 | barasertib -0.008

STAMBP (UniProt O95630)
inactive: [1] 0.024 | [2] -0.037 | [3] 0.133 | [4] -0.051 | Nexturastat A 0.049 | vemurafenib 0.055 | [5] -0.023 | [6] 0.158 | givinostat 0.067 | barasertib 0

SPC25 (UniProt Q9HBM1)
inactive: [1] 0.006 | [2] 0.003 | [3] 0.027 | [4] 0.047 | Nexturastat A 0.073 | vemurafenib 0.008 | [5] 0.046 | [6] 0.032 | givinostat -0.023 | barasertib 0.019

SPC24 (UniProt Q8NBT2)
inactive: [1] 0.065 | [2] -0.044 | [3] 0.011 | [4] 0.069 | Nexturastat A -0.018 | vemurafenib 0.095 | [5] 0.077 | [6] 0.014 | givinostat 0 | barasertib 0.044

SPATA5L1 (UniProt Q9BVQ7)
inactive: [1] -0.029 | [2] 0.006 | [3] -0.022 | [4] -0.012 | Nexturastat A 0.053 | vemurafenib -0.052 | [5] -0.043 | [6] 0.003 | givinostat 0.009 | barasertib -0.014

STAT5A (UniProt P42229)
inactive: [1] -0.033 | [2] -0.113 | [3] 0.072 | [4] 0.011 | Nexturastat A -0.009 | vemurafenib 0.067 | [5] 0.067 | [6] 0.141 | givinostat 0.156 | barasertib 0.096

SRA1 (UniProt Q9HD15)
inactive: [1] 0.002 | [2] -0.034 | [3] 0.003 | [4] 0.043 | Nexturastat A -0.01 | vemurafenib 0.025 | [5] 0.014 | [6] 0.013 | givinostat -0.025 | barasertib 0.017

SRSF4 (UniProt Q08170)
inactive: [1] 0.042 | [2] -0.001 | [3] -0.067 | [4] -0.032 | Nexturastat A 0.074 | vemurafenib -0.027 | [5] 0.017 | [6] 0.224 | givinostat 0.052 | barasertib -0.064

SRR (UniProt Q9GZT4)
inactive: [1] -0.025 | [2] 0.194 | [3] 0.037 | [4] -0.014 | Nexturastat A -0.167 | vemurafenib -0.009 | [5] 0.076 | [6] -0.028 | givinostat 0 | barasertib 0.063

STAT2 (UniProt P52630)
inactive: [1] -0.241 | [2] -0.132 | [4] -0.088 | vemurafenib 0.044 | [6] 0.185 | givinostat 0.216 | barasertib 0.103

SPATA33 isoform 2 (UniProt Q96N06)
inactive: [1] 0.002 | [2] 0.065 | [3] -0.049 | vemurafenib 0.034 | [5] 0.095 | givinostat 0.132 | barasertib -0.109

STARD3NL (UniProt O95772)
inactive: [1] 0.01 | [2] -0.002 | [3] 0.056 | [4] 0.076 | Nexturastat A -0.12 | vemurafenib 0.02 | [5] 0.048 | [6] -0.021 | givinostat 0.009 | barasertib -0.027

SPTLC1 (UniProt O15269)
inactive: [1] 0.074 | [2] 0.03 | [3] 0.08 | [4] -0.044 | Nexturastat A -0.006 | vemurafenib 0.026 | [5] 0.067 | [6] 0.105 | givinostat 0.044 | barasertib 0.048

SREK1IP1 (UniProt Q8N9Q2)
inactive: [1] 0.001 | [2] -0.004 | [3] -0.051 | Nexturastat A 0.109 | vemurafenib -0.003 | [5] -0.016 | [6] -0.007 | givinostat -0.171 | barasertib -0.044

SRSF6 (UniProt Q13247)
inactive: [1] -0.012 | [3] -0.16 | [4] 0.126 | Nexturastat A 0.248 | vemurafenib -0.024 | [5] -0.058 | [6] 0.104 | givinostat 0.019 | barasertib -0.059

SRI (UniProt P30626)
inactive: [1] 0.035 | [2] -0.092 | [3] 0.094 | [4] 0.037 | Nexturastat A -0.073 | vemurafenib 0.092 | [5] 0.045 | [6] -0.055 | givinostat -0.03 | barasertib 0.107

SRCAP (UniProt Q6ZRS2)
inactive: [1] -0.177 | [2] -0.286 | [3] 0.058 | [4] 0.036 | vemurafenib 0.278 | [5] 0.082 | [6] -0.02 | givinostat -0.041 | barasertib 0.026

SPG11 (UniProt Q96JI7)
inactive: [1] -0.384 | [2] 0.068 | [3] -0.063 | [4] -0.182 | Nexturastat A 0.359 | vemurafenib -0.415 | [5] -0.008 | [6] -1.21 | givinostat 0.023 | barasertib 0.029

SPINT1 (UniProt O43278)
inactive: [1] -0.018 | [2] -0.023 | [3] 0.042 | [4] -0.113 | Nexturastat A 0.07 | vemurafenib -0.068 | [5] -0.005 | givinostat 0.066

STK11IP (UniProt Q8N1F8)
inactive: [1] 0.095 | [3] 0.038 | [4] -0.071 | Nexturastat A 0.118 | vemurafenib -0.159 | [5] 0.061 | [6] 0.063 | givinostat -0.017 | barasertib 0.008

SRFBP1 (UniProt Q8NEF9)
inactive: [1] 0.008 | [2] -0.019 | [3] -0.127 | [4] -0.025 | Nexturastat A 0.111 | [5] -0.012 | [6] -0.012 | givinostat -0.061 | barasertib -0.045

SRP14 (UniProt P37108)
inactive: [1] -0.052 | [2] 0.013 | [3] -0.047 | [4] -0.24 | Nexturastat A 0.291 | vemurafenib -0.161 | [5] -0.087 | [6] 0.111 | givinostat 0.035 | barasertib -0.09

Fetched one by one from the entries so far (2):
SPAST (UniProt Q9UBP0)
inactive: [1] -0.032 | [2] -0.05 | [3] 0.049 | [4] 0.029 | Nexturastat A -0.047 | vemurafenib 0.068 | [5] 0.021 | [6] 0.062 | givinostat 0.074 | barasertib 0.045

SPATA5L1 (UniProt Q9BVQ7)
inactive: [1] -0.029 | [2] 0.006 | [3] -0.022 | [4] -0.012 | Nexturastat A 0.053 | vemurafenib -0.052 | [5] -0.043 | [6] 0.003 | givinostat 0.009 | barasertib -0.014

Further entries follow:

STAT6 (UniProt P42226)
inactive: [1] -0.092 | [2] -0.111 | [3] 0.053 | [4] 0.015 | Nexturastat A 0.044 | vemurafenib 0.058 | [5] 0.082 | [6] -0.012 | givinostat 0.078 | barasertib 0.001

SRPK1 (UniProt Q96SB4)
inactive: [1] 0.092 | [2] 0 | [3] -0.061 | [4] -0.107 | Nexturastat A 0.288 | vemurafenib -0.14 | [5] -0.033 | [6] 0.122 | givinostat -0.001 | barasertib -0.094

SPATA31E1 (UniProt Q6ZUB1)
inactive: [1] -0.192 | [2] -0.102 | [3] -0.167 | [4] -0.143 | vemurafenib -0.121 | [5] -0.374 | [6] -0.297 | barasertib 0.094

SPN (UniProt P16150)
inactive: [1] -0.096 | [2] -0.021 | [3] -0.017 | [4] -0.009 | Nexturastat A 0.009 | vemurafenib -0.019 | [5] -0.056 | [6] -0.033 | givinostat 0.003 | barasertib 0.012

SPTBN1 (UniProt Q01082)
inactive: [1] 0.018 | [2] 0.02 | [3] 0.004 | [4] -0.036 | Nexturastat A 0.088 | vemurafenib 0.058 | [5] 0.006 | [6] 0.051 | givinostat 0.049 | barasertib 0.019

SRRM1 (UniProt Q8IYB3)
inactive: [1] 0.007 | [2] 0.032 | [3] -0.084 | [4] -0.048 | Nexturastat A 0.092 | vemurafenib -0.05 | [5] -0.018 | [6] -0.149 | givinostat -0.023 | barasertib -0.048

SPTAN1 isoform 2 (UniProt Q13813)
inactive: [1] 0.044 | [2] 0.014 | [3] -0.022 | [4] -0.025 | Nexturastat A 0.03 | vemurafenib -0.01 | [5] -0.043 | [6] -0.015 | givinostat 0.017 | barasertib -0.01

ST6GALNAC1 (UniProt Q9NSC7)
inactive: [1] 0.009 | [2] -0.012 | [3] 0.079 | [4] -0.015 | Nexturastat A 0.004 | vemurafenib 0.051 | [5] 0.032 | [6] 0.026 | givinostat 0 | barasertib -0.054
